Results: PubChem BioAssay AID493014 (National Center for Advancing Translational Sciences (NCATS), 2011)
Some of the results follow. Further columns of the screen follow, without active or inactive calls. Most of these compounds were active or inconclusive in the main read-out, so they are no random draw. The note in brackets gives the kind of curve behind each potency; many fits are weak.

Assay: qHTS Assay to Find Inhibitors of Chronic Active B-Cell Receptor Signaling
Settings: ABC-DLBCL IkBa-CBG/CBR reporter, luminescence ratio (green luciferase fused to IkBa over red control in TMD8 lymphoma cells), 4 h
Procedure, shortened: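 Compounds up to 46 uM were incubated four hours with TMD8 cells whose green CBG68 luciferase is fused to IkappaBalpha; red CBR luminescence normalised the signal, and concentration-effect curves were fitted to fusion, red and ratio data.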

[1] = measured here: CBR red luminescence, cell number
[2] = measured here: IkBa-CBG green luminescence

| Structure (SMILES) | AC50 [1] | AC50 [2] |
| --- | --- | --- |
| C=CCn1c(C)cc(C(=O)COC(=O)/C=C/c2cccc(OC)c2)c1C | 4.47 µM [rising, partial curve] | – |
| CC(=O)c1cc(Cc2csc(C(C)=O)c2)cs1 | 15.8 µM [rising, partial curve] | – |
| O=C(O)/C=C/c1ccc(S(=O)(=O)N2CCN(CCN3C(=O)C4C5C=CC(C5)C4C3=O)CC2)cc1 (stereo not drawn) | 5.62 µM [rising, single point] | – |
| O=C(Nc1nc(-c2ccccc2)ns1)c1ccncc1 | 1.58 µM [falling, full curve] | – |
| Clc1ccc(-c2nnc(CCc3ccccc3)o2)c(Cl)c1 | 3.98 µM [rising, full curve] | – |
| COC(=O)CCCC(=O)N1CCOCCN(C(=O)CCCC(=O)OC)CCOCC1 | 3.98 µM [rising, single point] | – |
| Brc1ccc(-c2csc(NNC3=NCCCCC3)n2)cc1 | 6.31 µM [rising, single point] | – |
| Cc1cs/c(=N\N=C\c2ccc(O)cc2)n1Cc1ccco1 | 29.1 µM [falling, single point] | – |
| Cc1ccccc1NC(=O)Cc1nc(COC(=O)c2cc([N+](=O)[O-])ccc2NCCO)cs1 | 18.4 µM [falling, single point] | – |
| O=C(NCc1cccnc1)c1ccc(-c2cccc(Cl)c2Cl)o1 | 25.1 µM [falling, single point] | – |
| Cc1ccc(C)c(OCCn2cc(/C=C(\C#N)C(=O)NCc3cccs3)c3ccccc32)c1 | 0.82 µM [rising, full curve, poor fit] | – |
| CCOC(=O)c1c(N)sc2c(OCC)c(Br)ccc12 | 29.1 µM [rising, single point] | – |
| Cn1c(=O)n(Cc2ccccc2Br)c2ccccc21 | 17.8 µM [rising, partial curve, poor fit] | 12.6 µM [falling, partial curve] |
| O=C(N/N=C/c1ccc(N2CCCC2)c([N+](=O)[O-])c1)c1cccnc1 | 17.8 µM [falling, partial curve] | – |
| COc1cccc(COc2ccc3c(C)cc(=O)oc3c2)c1 | 35.5 µM [rising, single point] | – |
| CC(OC(=O)c1ccc(O)cc1)C(=O)Nc1ccc(Oc2ccccc2)cc1 (stereo not drawn) | 14.6 µM [falling, partial curve, poor fit] | – |
| CCOc1cc(/C=N/O)ccc1OCc1ccc(C)cc1 | 9.2 µM [rising, partial curve] | 9.2 µM [falling, partial curve, poor fit] |
| COc1ccc(Cc2nnc(SC)[nH]c2=O)cc1 | 29.1 µM [falling, single point] | – |
| Cc1cccc2c1-c1sc(C(=O)Nc3ccccc3N3CCN(C)CC3)cc1CO2 | 10 µM [falling, partial curve, poor fit] | – |
| CCCCOc1ccc(OC(=O)Nc2cc(Cl)ccc2OC)cc1 | 8.91 µM [rising, partial curve, poor fit] | – |
| N#CC1=C(N)n2c(s/c(=C\c3ccco3)c2=O)=C(C#N)C1c1ccco1 (stereo not drawn) | 6.51 µM [falling, single point] | – |
| O=C(CN1CCc2ccccc2C1)Nc1ccccc1C(=O)NC1CC1 | 7.31 µM [rising, single point] | – |

A few values from the list:
Value of `CC(OC(=O)c1ccc(O)cc1)C(=O)Nc1ccc(Oc2ccccc2)cc1` (stereo not drawn) under AC50 [1]: 14.6 µM [falling, partial curve, poor fit]
Value of `Cc1ccccc1NC(=O)Cc1nc(COC(=O)c2cc([N+](=O)[O-])ccc2NCCO)cs1` under AC50 [1]: 18.4 µM [falling, single point]

Continuation.

| Structure (SMILES) | AC50 [1] | AC50 [2] |
| --- | --- | --- |
| COc1ccccc1C(=O)O/N=C(\N)c1ccccn1 | 1 µM [falling, full curve] | – |
| CCC(C)(C(=O)NC1CCCC1)N(C)C(=O)c1ccccn1 (stereo not drawn) | 0.562 µM [falling, full curve, poor fit] | – |
| Nc1[nH][nH]c(=O)c1N=Nc1ccc2c(c1)OCO2 | 14.1 µM [falling, single point] | – |
| COc1ccc(Cc2nnc(NC(=O)Nc3ccc(C)cc3)s2)cc1OC | 15.8 µM [rising, partial curve, poor fit] | – |
| CCOC(=O)CC1(CC(=O)OCC)NC(=O)c2c(C)sc(C(=O)OCC)c2N1 | 6.51 µM [falling, single point] | – |
| CCOc1nc(N=C(N)N)nc2c(C)cccc12 | 1.41 µM [falling, partial curve, poor fit] | – |
| CCc1nc2ccc(Cc3ccc4nc(CC)[nH]c4c3)cc2[nH]1 | 35.5 µM [falling, single point] | – |
| CCCN=Cc1sc2ccc(OCC)cc2c1O | 1 µM [rising, full curve, poor fit] | – |
| FC(F)(F)c1ccc(NCCc2ccccc2)nc1 | 11.2 µM [rising, partial curve, poor fit] | – |
| CCOC(=O)c1c(NC(=S)N2CCOCC2)sc2c1CCN(C(=O)OCC)C2 | 22.4 µM [falling, single point] | – |
| Cc1ccc(C(=O)CCC(=O)Nc2ccccc2C)cc1C | 4.47 µM [falling, partial curve, poor fit] | – |
| Cc1cccc(C)c1NC(=O)NNC(=O)c1cc(C(C)(C)C)nn1Cc1ccccc1 | 0.447 µM [falling, full curve, poor fit] | – |
| COc1cc(N2CN=c3s/c(=C\c4ccccn4)c(=O)n3C2)cc(OC)c1OC | 2.31 µM [falling, single point] | – |
| O=S(=O)(NCCc1csc2nc(-c3ccc(F)cc3)nn12)c1ccc2c(c1)OCCO2 | 25.1 µM [falling, single point] | 12.6 µM [rising, partial curve, poor fit] |
| Nc1nonc1-c1nc2ccccc2n1CC(=O)N1CCCCC1 | 0.562 µM [falling, partial curve, poor fit] | – |
| O=C(NCCC1CCCCN1S(=O)(=O)c1ccc(F)cc1)C(=O)Nc1ccccc1F (stereo not drawn) | 6.51 µM [falling, partial curve, poor fit] | – |
| CSc1nc(C)cc(OCC(=O)N/N=C/c2ccccc2O)n1 | – | 10.3 µM [falling, partial curve, poor fit] |
| Cc1cc(C)nc(NC(=O)Cc2ccc([N+](=O)[O-])cc2)c1 | 29.1 µM [rising, partial curve, poor fit] | – |
| CCCCNC(=O)c1cc(-c2ccc(F)cc2)on1 | 2.59 µM [falling, full curve] | – |
| CS(=O)(=O)c1cccc(C(=O)Nc2ccc(-c3nc4ccccc4[nH]3)cc2)c1 | 3.16 µM [falling, partial curve] | – |
| CCCCn1c(SCC(=O)Nc2cc(C)on2)nnc1-c1cccs1 | 35.5 µM [falling, single point] | – |
| C=CCNc1nc(C(=O)OCC(=O)NCc2cccc(Cl)c2)cs1 | 23.1 µM [rising, partial curve, poor fit] | – |

| Structure (SMILES) | AC50 [1] | AC50 [2] |
| --- | --- | --- |
| COc1cc(C)nc(OCCNC(=O)COc2ccc(Cl)cc2Cl)n1 | 23.1 µM [falling, single point] | – |
| CCN1C(=O)[C@H]2[C@H]3CN=C(SCc4ccccc4)N3[C@@](Cc3ccccc3)(C(=O)OC)[C@H]2C1=O | 25.9 µM [falling, single point] | – |
| COc1ccccc1NCCC(=O)OCC(=O)Nc1ccccc1Cl | 6.51 µM [rising, single point] | – |
| COc1ccc(-n2ncc(Cl)c(Cl)c2=O)cc1 | 3.98 µM [falling, full curve] | – |
| O=C(NCc1ccccc1)C1=C[C@@H](c2ccc(Br)cc2)C[C@@H](OCCCCO)O1 | 3.98 µM [rising, single point] | – |
| CC(C)Cn1nc(NC(=O)c2cccs2)c2cc3ccccc3nc21 | 3.98 µM [falling, partial curve, poor fit] | 6.31 µM [rising, full curve] |
| CC(C)CNS(=O)(=O)c1ccc(CCC(=O)N2CCN(c3ccc(F)cc3)CC2)cc1 | 12.6 µM [falling, single point] | – |
| COc1ccc(Nc2nnc(SCC3CCCCO3)s2)cc1 (stereo not drawn) | 12.6 µM [rising, single point] | – |
| CC(=O)c1c(C)[nH]c(C(=O)CSc2nnc(-c3ccco3)n2Cc2ccccc2)c1C | 0.562 µM [rising, full curve, poor fit] | – |
| CCCOc1ccc(C(=O)NCCC(=O)NCCCC(=O)O)cc1 | 35.5 µM [rising, single point] | – |
| N#Cc1nc(-c2ccco2)oc1N1CCc2ccccc2C1 | 11.6 µM [rising, partial curve, poor fit] | – |
| Cn1c(-c2sccc2OCc2ccccc2)n[nH]c1=S | 35.5 µM [falling, single point] | – |
| O=C(NCCc1ccc(Cl)cc1)C1CCC(=O)N1Cc1ccc(F)cc1 (stereo not drawn) | 0.461 µM [falling, partial curve, poor fit] | – |
| Cc1ccnc(SCc2ccc([N+](=O)[O-])cc2)n1 | 6.31 µM [rising, single point] | – |
| CN=c1scc(-c2cc(OC)ccc2OC)n1/N=C/c1c(C)[nH]c2ccccc12 | 13 µM [rising, partial curve] | – |
| Cc1ccccc1OCC(=O)N/N=C/c1ccc([N+](=O)[O-])o1 | 8.2 µM [falling, partial curve, poor fit] | – |
| CCC1(CC)NC(=O)N(CC(=O)OCC(=O)Nc2ccc(F)c(F)c2F)C1=O | 11.2 µM [rising, partial curve] | – |
| CCCc1nc2ccccc2c(=O)n1/N=C/c1ccccc1O | 5.01 µM [falling, full curve, poor fit] | – |
| Cc1cc(=O)n2[nH]c(COc3ccccc3)nc2n1 | 7.31 µM [falling, partial curve] | – |
| Cc1cccc(NC(=O)/C(=C\c2ccc([N+](=O)[O-])o2)NC(=O)c2ccc(Cl)cc2)c1 | 0.58 µM [falling, full curve] | – |

Molecules above that have an aryl methoxy group (twelve):

| Structure (SMILES) | AC50 [1] | AC50 [2] |
| --- | --- | --- |
| C=CCn1c(C)cc(C(=O)COC(=O)/C=C/c2cccc(OC)c2)c1C | 4.47 µM [rising, partial curve] | – |
| COc1cccc(COc2ccc3c(C)cc(=O)oc3c2)c1 | 35.5 µM [rising, single point] | – |
| COc1ccc(Cc2nnc(SC)[nH]c2=O)cc1 | 29.1 µM [falling, single point] | – |
| CCCCOc1ccc(OC(=O)Nc2cc(Cl)ccc2OC)cc1 | 8.91 µM [rising, partial curve, poor fit] | – |
| COc1ccccc1C(=O)O/N=C(\N)c1ccccn1 | 1 µM [falling, full curve] | – |
| COc1ccc(Cc2nnc(NC(=O)Nc3ccc(C)cc3)s2)cc1OC | 15.8 µM [rising, partial curve, poor fit] | – |
| COc1cc(N2CN=c3s/c(=C\c4ccccn4)c(=O)n3C2)cc(OC)c1OC | 2.31 µM [falling, single point] | – |
| COc1cc(C)nc(OCCNC(=O)COc2ccc(Cl)cc2Cl)n1 | 23.1 µM [falling, single point] | – |
| COc1ccccc1NCCC(=O)OCC(=O)Nc1ccccc1Cl | 6.51 µM [rising, single point] | – |
| COc1ccc(-n2ncc(Cl)c(Cl)c2=O)cc1 | 3.98 µM [falling, full curve] | – |
| COc1ccc(Nc2nnc(SCC3CCCCO3)s2)cc1 (stereo not drawn) | 12.6 µM [rising, single point] | – |
| CN=c1scc(-c2cc(OC)ccc2OC)n1/N=C/c1c(C)[nH]c2ccccc12 | 13 µM [rising, partial curve] | – |
